Measured values taken from PubChem BioAssay AID504467 (National Center for Advancing Translational Sciences (NCATS), 2011).
About 7,700 (2.3%) of roughly 330,000 compounds were called active. Inconclusive means that the source gave no clear call. Such entries were picked first, then a sample of the others. The call rests on the fitted dose curve; in most records, active means well fitted inhibition curve with a large enough effect; inconclusive means small, poorly fitted or top-dose-only effect, or effect the other way; inactive means flat fitted curve, though single readings scatter. Where the call is inconclusive, the potency comes from a doubtful curve fit.

Experiment: qHTS screen for small molecules that inhibit ELG1-dependent DNA repair in human embryonic kidney (HEK293T) cells expressing luciferase-tagged ELG1; further: nearly all actives have a fitted effect of over 55% in size
Conditions: HEK293T ELG1-luciferase reporter, luminescence, 16 h, DNA damage induced by 5-fluorouridine; activity change, negative = inhibition: at 46.1 µM (top of the series)
Procedure, shortened: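 In this reporter screen, reduction of luminescence relative to DMSO vehicle indicated activity. Compounds and 5-fluorouridine were added together to 2,000 cells per well, incubated for 16 hr at 37 °C, then developed with ONE-Glo.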
On the % scale 0 is the no-effect control and ±100 the full control effect; potency means the concentration at half of the fitted maximal effect.

SMILES | Potency | activity change, negative = inhibition
C/C(=N\NC(=O)Cc1ccccc1)c1cccs1 | inconclusive: 0.146 µM [activator, full curve, poor fit] | 
CCc1ccccc1NC(=O)CCC(=O)Nc1nnc(C(C)C)s1 | inconclusive: 29.1 µM [activator, single point] | 
CN(C)c1ccc(NC(=O)Nc2ccc3snnc3c2)cc1 | inconclusive: 20.6 µM [activator, partial curve] | 
N#C/C(=C\C1=C(N2CCOCC2)C(=C/c2cccc([N+](=O)[O-])c2)/CC1)C(=O)Nc1ccccc1F | inconclusive: 3.26 µM [inhibitor, full curve] | 
Cc1cc(NC(=O)OC(C)C)ccc1-c1ccc(NC(=O)OC(C)C)cc1C | inconclusive: 0.651 µM [inhibitor, single point] | 
Nc1nc2nccc(-c3ccco3)n2n1 | inconclusive: 23.1 µM [activator, single point] | 
COc1ccc(-c2csc(/C(C#N)=C/Nc3ccc4c(c3)OCCO4)n2)cc1 | inconclusive: 6.51 µM [inhibitor, single point] | 
CCCOc1ccc(-c2nc(C#N)c(NCCCn3ccnc3)o2)cc1 | inconclusive: 6.51 µM [inhibitor, partial curve, poor fit] | 
CCOc1ccc(N2CC(C(=O)N3CCCCCC3)CC2=O)cc1 (stereo unspecified) |  | inactive: 0.398%
CCn1c2ccccc2c2nnc(SCC(=O)c3ccccc3)nc21 | inconclusive: 32.6 µM [inhibitor, partial curve, poor fit] | 
COCCN(C(=O)COC(=O)CSc1ccc(Cl)cc1)c1c(N)n(CC(C)C)c(=O)[nH]c1=O |  | inactive: 25.6%
Cc1[nH]n(-c2ccccc2)c(=O)c1/C=N/NC(=O)c1ccccc1F | active: 2.31 µM | 
O=C(O)c1cc(N/N=C/c2c[nH]c3ccccc23)ccc1Cl | inconclusive: 18.3 µM [activator, partial curve] | 
CCc1ccc(NC(=S)N(Cc2ccc(Cl)cc2)Cc2ccc(C(=O)O)cc2)cc1 | inconclusive: 6.51 µM [inhibitor, partial curve, poor fit] | 
CC1CCc2nc(/C(C#N)=C/c3cccnc3)sc2C1 (stereo unspecified) | inconclusive: 2.59 µM [activator, partial curve] | 
CC(C)c1nc(SCC(=O)N2CCCc3ccccc32)c2c(=O)n(C)c(=O)n(C)c2n1 | inconclusive: 25.9 µM [inhibitor, partial curve] | 
NS(=O)(=O)c1cccc(NC(=O)COC(=O)Cc2ccc(Cl)cc2)c1 |  | inactive: -5.98%
Fc1ccccc1C1CC(c2ccco2)=Nc2ccccc2S1 (stereo unspecified) | inconclusive: 23.1 µM [activator, partial curve] | 
Cc1ccc(S(=O)(=O)CCC(=O)OCC(=O)NC(N)=O)cc1 | inconclusive: 4.11 µM [inhibitor, partial curve, poor fit] | 
CCOc1ccc(NC(=S)N(CC)Cc2ccccc2)cc1 |  | inactive: -25.1%
COc1cc(C2SCC(=O)N2CCc2ccc(OC)c(OC)c2)ccc1O (stereo unspecified) | inconclusive: 20.6 µM [inhibitor, single point] | 
COc1ccc(Cn2c(=O)cc(N)n(-c3ccccc3C)c2=O)cc1 | inconclusive: 5.8 µM [inhibitor, partial curve] | 
COc1cc(NC(=O)c2ccco2)c(C(=O)OCC(=O)c2c[nH]c3ccccc23)cc1OC | active: 8.2 µM | 
O=C1OC2(CCCCC2)OC(=O)C1=CNc1nc2ccccc2s1 | inconclusive: 20.6 µM [activator, single point] | 

SMILES | Potency | activity change, negative = inhibition
Cc1ccc(S(=O)(=O)NCCNC(=O)CN2CCOCC2)cc1 |  | inactive: 15%
O=C(CN1C(=O)NC2(CCc3ccccc32)C1=O)Nc1cccc(F)c1 (stereo unspecified) | inconclusive: 0.92 µM [activator, partial curve] | 
COc1ccc(N2CCN(C(=O)CSc3ccc([N+](=O)[O-])cc3)CC2)cc1 | inconclusive: 16.4 µM [inhibitor, partial curve, poor fit] | 
CCOC(=O)C1C(=O)C=C(c2cccs2)CC1c1ccccc1C (stereo unspecified) | inconclusive: 18.4 µM [inhibitor, single point] | 
CCOc1cccc(-c2nnc3sc(-c4cc(OC)c(OC)cc4OC)nn23)c1 |  | inactive: -1.81%
CCC(=O)c1cc2c(C)cc(=O)oc2c(C)c1OC(C)=O | inconclusive: 20.6 µM [inhibitor, single point] | 
C/C(CC1CC(C)OC1=O)=N\NC(N)=S (stereo unspecified) |  | inactive: 6.11%
O=C(NCC(=O)N1CCN(C(=O)c2ccccc2)CC1)c1ccccc1 | inconclusive: 9.2 µM [activator, partial curve, poor fit] | 
CC(C)[C@@H](CO)NS(=O)(=O)c1ccc(Br)cc1F | inconclusive: 18.3 µM [activator, partial curve, poor fit] | 
Cc1cc2oc(C(=O)Nc3ccc(S(N)(=O)=O)cc3)c(C)c2cc1Cl | inconclusive: 20.6 µM [activator, single point] | 
O=C1Nc2cc(C(=O)N3CCN(c4ccccn4)CC3)ccc2S/C1=C\c1ccccc1 | active: 18.3 µM | 
CCOC(=O)c1cnc(SC)nc1Sc1cc(Cl)ccc1Cl |  | inactive: 9.8%
CCCCOc1ccc(OCCCN2CCOCC2)cc1 | inconclusive: 29.1 µM [activator, partial curve, poor fit] | 
CCSc1ccc(-c2ccc(C)cc2)nn1 | inconclusive: 2.91 µM [activator, full curve] | 
CSc1ncccc1C(=O)OCC(=O)NC1CCCC1 | inconclusive: 32.6 µM [activator, partial curve, poor fit] | 
O=C(OCC(=O)N1CCN(C(=O)c2ccco2)CC1)C1=COCCO1 | inconclusive: 29.1 µM [activator, partial curve, poor fit] | 
Cc1ccc(-c2nnc(CSc3nc4cc5c(cc4cc3C)OCO5)o2)cc1 | inconclusive: 25.9 µM [inhibitor, single point] | 
O=C(NCc1cccc(C(F)(F)F)c1)c1cc(Cl)ccc1Cl |  | inactive: -9.06%
COc1ccc(C(CC(=O)Nc2nccs2)n2cccc2)cc1 (stereo unspecified) | inconclusive: 7.31 µM [activator, partial curve] | 
O=C(NNc1nc2c(F)cccc2s1)c1ccccc1 |  | inactive: 4.85%
CN(C)CCNC(=O)c1ccc(COc2ccc(Cl)cc2Cl)cc1 | inconclusive: 23.1 µM [activator, single point] | 
CN(Cc1cccnc1)Cc1cn(C)nc1-c1cccc(Cl)c1 |  | inactive: 7.69%
O=C(c1ccco1)N1N=C(c2ccc(Cl)cc2)CC1(O)C(F)(F)F (stereo unspecified) |  | inactive: -26.9%
Cc1nnc(SCC(=O)NNC(=O)c2ccccc2)n1N |  | inactive: 21.1%

Molecules from the list above that contain an NH in an aromatic ring (four):
SMILES | Potency | activity change, negative = inhibition
COCCN(C(=O)COC(=O)CSc1ccc(Cl)cc1)c1c(N)n(CC(C)C)c(=O)[nH]c1=O |  | inactive: 25.6%
Cc1[nH]n(-c2ccccc2)c(=O)c1/C=N/NC(=O)c1ccccc1F | active: 2.31 µM | 
O=C(O)c1cc(N/N=C/c2c[nH]c3ccccc23)ccc1Cl | inconclusive: 18.3 µM [activator, partial curve] | 
COc1cc(NC(=O)c2ccco2)c(C(=O)OCC(=O)c2c[nH]c3ccccc23)cc1OC | active: 8.2 µM | 

Remaining list, next part:

SMILES | Potency | activity change, negative = inhibition
CC1(C)OC(=O)C(=NNc2ccc(Cl)cc2)C(=O)O1 | inconclusive: 16.4 µM [activator, partial curve] | 
O=c1c2ccccc2cnn1-c1ccc2ccccc2c1 | inconclusive: 2.31 µM [activator, full curve] | 
CCCC/C(O)=C1\C(=O)CC(C)(C)CC1=NCCCCCC(=O)O |  | inactive: 12.4%
CCOC(=O)c1cnn(-c2ccc(F)cc2)c1N | inconclusive: 32.6 µM [activator, partial curve, poor fit] | 
CC(=O)Nc1ccc2nc(SCC(=O)Nc3ccc(N4CCOCC4)c(Cl)c3)sc2c1 | inconclusive: 29.1 µM [inhibitor, single point] | 
CCc1cccc(CC)c1NC(=O)CSc1nc2ccc(N3C(=O)C4C(C3=O)[C@H]3C=C[C@@H]4C3)cc2s1 (stereo partly specified) | inconclusive: 13 µM [inhibitor, partial curve, poor fit] | 
COc1cc2ccc(=O)oc2c(O)c1OCC=C(C)C | inconclusive: 20.6 µM [activator, single point] | 
CCOc1ccc2nc(SCC(=O)c3cccs3)sc2c1 | inconclusive: 11.6 µM [activator, partial curve, poor fit] | 
Cc1cc(C)c2c(n1)sc1c(N3CCN(C)CC3)ncnc12 | inconclusive: 29.1 µM [activator, single point] | 
N#CC1=C(N)Oc2c(ccc3ccccc23)C1c1cccs1 (stereo unspecified) | inconclusive: 16.4 µM [activator, partial curve] | 
O=S(=O)(c1ccc(Cl)c2ccccc12)N1CCCC1 |  | inactive: 3.37%
CN(C)c1ccc(/C=C/C#N)cc1 |  | inactive: 12.1%
CN(C)/N=C/C=C1\CC/C(=C\c2ccc(Br)cc2)C1=O | inconclusive: 13 µM [activator, partial curve] | 
CCOc1ccc(-c2nnc(SCC(=O)NC3CC3)o2)cc1 | inconclusive: 28.2 µM [activator, single point] | 
CCOC(=O)c1c(NC(=O)COc2cccc3c2CCN(C)C3=O)sc2c1CCC2 | active: 18.4 µM | 
COc1ccccc1-c1nn(-c2ccccc2)cc1C(=O)N1CCc2ccccc2C1 | inconclusive: 29.1 µM [inhibitor, single point] | 
O=S1(=O)N=C(Nc2ccc(N3CCOCC3)cc2)c2ccccc21 |  | inactive: 12.1%
COc1ccc(-n2c(O)c(/C=N/NS(=O)(=O)c3ccc(C)cc3)c3ccccc3c2=O)cc1OC |  | inactive: -2.64%
CCS(=O)(=O)N1CCC(C(=O)Nc2ccc3c(c2)CCC3)CC1 |  | inactive: -0.573%
COC(=O)c1ccccc1NC(=O)N1CCN(c2ccccc2F)CC1 | inconclusive: 5.8 µM [inhibitor, full curve] | 
O=C(Nc1ccc(Cl)c([N+](=O)[O-])c1)Nc1nc2ccccc2s1 | inconclusive: 29.1 µM [inhibitor, single point] | 
CNc1nc(NCc2ccccc2)nc(N)c1[N+](=O)[O-] | inconclusive: 20.6 µM [activator, partial curve] | 
CCCCN(C(=O)c1cc2c(s1)CCCCC2)c1c(N)n(CCC)c(=O)[nH]c1=O |  | inactive: 15.5%
